Results taken from patent US20110293676A1, “Oral Cephalotaxine Dosage Forms” (ChemGenex Pharmaceuticals, Inc., priority 2007, published 2011).
At least one structure is not confirmed: it was looked up by name or label, or the drawing left a doubt.

Experiment: Pharmacokinetic study of homoharringtonine in mice, oral vs subcutaneous, plasma HHT content
Assay type: in vivo, male CD-1 mice
Conditions: mouse, depending on dose given (2 doses)
Method: To evaluate the potential for the development of an oral formulation of homoharringtonine, a pharmacokinetic study was performed in mice. Homoharringtonine was given, at 2 doses, by either oral or subcutaneous routes to male CD-1 mice. After a single administration, blood was collected from the tail vein and analyzed for homoharringtonine content. The animal dosing was performed by Murigenics (Berkeley, Calif.) and the analysis of sera was performed by PHARMout (Sunnyvale, Calif.). […] This bioavailability is considered very good.
Homoharringtonine was manufactured by Stragen for ChemGenex Pharmaceuticals. 5 mg of lyophilized homoharringtonine was provided in a glass vial and was stable at room temperature. The vehicle was 0.9% sodium chloride supplied with the test agent in a separate vial. 27 male CD-1 mice, 8-10 weeks old (Charles River Laboratories) were used for this study. 24 mice were used for dosing, and 3 mice were used as naïve controls.
On the day of the study, 5 ml of saline were added to the 5 mg vial to make a stock of 1 mg/ml HHT. The amount administered for each mouse was based on weight, using a dose volume of 4 ml/kg. The dosing administration was performed according to Table 1.
Test subjects were dosed once. […]

COC(=O)C[C@](O)(CCCC(C)(C)O)C(=O)O[C@@H]1C(OC)=C[C@]23CCCN2CCc2cc4c(cc2[C@H]13)OCO4 [HHT, cephalotaxine, 4-methyl-2-hydroxy-2-(4-hydroxy-4-methylpentyl) butanediocate ester]
bioavailability after oral delivery as compared to subcutaneous delivery: 76-77%
